Reference: patent publication US20250172543A1, “HIGH DENSITY 3D HEPATOCYTE SPHEROID PLATFORM FOR DRUG ADME STUDIES” (Discovery Life Sciences, LLC, priority 2018, published 2025)

Test system: 3D primary human hepatocyte (PHH) high density spheroids
Assay: 3D PHH high density spheroid drug clearance assay
Assay type: in vitro ADME
Details: 0.1 μM substrate, 6-well spheroid insert, in vivo hepatic clearance predicted from in vitro Clint by well stirred model

## CN1C(=O)CN=C(c2ccccc2)c2cc(Cl)ccc21 [Diazepam]
  Predicted CLh, 3D HD Spheroids: 0.09
